From patent US9440969B2, “Compounds and methods for kinase modulation, and indications therefor” (PLEXXIKON INC., priority 2009, dated 2016)
At least one structure is not confirmed: it was looked up by name or label, or the drawing left a doubt.

Experiment: Relative solubility by turbidity in aqueous buffers (pH 1.5, 4.5, 6.8, 7.4)
Assay type: physicochemical
Method: As an indication of relative solubility, the turbidity of compounds in aqueous solutions is assessed. To assess possible compound properties in different physiological compartments, such as stomach, intestine, and blood, a series of aqueous buffers with varying pH is used. Thus each compound is diluted into four different physiologically relevant buffers and solution turbidity is measured by spectrophotometry.
Compounds are dissolved at a concentration of 25 mM in dimethyl sulfoxide, then serially diluted 1:1 into a 96 well plate, diluting 10 times in pure dimethyl sulfoxide, with the final well of each row a dimethyl sulfoxide blank. In an assay plate, 99 μL of appropriate buffer is added to each well, and 1 μL of each sample dilution is added to the buffer, achieving a range of final total concentrations in aqueous solutions having different pH. The buffers used are Simulated Gastric Fluid (SGF-pH 1.5) 0.5M NaCl, pH 1.5; Simulated Intestinal fluid (SIF-pH 4.5 and pH 6.8) 0.05M NaH2PO4, pH 4.5 and 6.8; and Hepes Buffer (HEPES-pH 7.4) 10 mM HEPES, 150 mM NaCl, pH 7.4. Control compounds pyrene, estriol and propranolol HCl are also assessed. Plates are spun and then mixed for 1 minute, and the absorbance is read using a Tecan Safire II to read wavelengths in the visible range (490, 535, and 650 nm) at four locations per well, reflecting the degree of turbidity present. The average optical density for each wavelength in each well is graphed vs. compound concentration, and the concentration at which the curve crosses a threshold O.D. of 0.01 for each wavelength is reported as the endpoint turbidity assay result. The average of the three wavelengths is used to compare turbidity of compounds. Compounds are considered to have low solubility if the threshold concentration is <31.3 μM, moderate solubility if the threshold concentration is 31.3 μM to 250 μM, and high solubility if the threshold concentration is >250 μM.
The following table indicates the relative solubility (L=low, M=moderate, H=high) based on turbidity threshold concentration at each pH for exemplary compounds according to the invention: […]

With CCCS(=O)(=O)Nc1ccc(F)c(C(=O)c2c[nH]c3ncc(-c4ccc5ncncc5c4)cc23)c1F [P-0026, Propane-1-sulfonic acid [2,4-difluoro-3-(5-quinazolin-6-yl-1H-pyrrolo[2,3-b]pyridine-3-carbonyl)-phenyl]-amide] the “turbidity threshold (L, M, H) 1.4” value (pH 1.5 buffer (SGF)) was “L (low solubility if the threshold concentration is <31.3 μM)”, the “turbidity threshold (L, M, H) 4.5” value (pH 4.5 buffer (SIF)) was “L (low solubility if the threshold concentration is <31.3 μM)” and the “turbidity threshold (L, M, H) 6.8” value (pH 6.8 buffer (SIF)) was “L (low solubility if the threshold concentration is <31.3 μM)”. The “turbidity threshold (L, M, H) 7.4” value (pH 7.4 buffer (HEPES)) was “L (low solubility if the threshold concentration is <31.3 μM)”.
